PubChem BioAssay AID504804, Drosophila RNAi Screening Center, 2011
The screen tested about 19,000 reagents; this is an unselected part of those with a known target gene and a result. Of all reagents, 47 (0.25%) are marked active. 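Signals are raw, not normalised; exact z-scores behind calls not deposited; actives needed confirmation, so some wells reaching 2 SD are inactive.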 Unmarked entries are inactive. Reagents against one gene are numbered here. A plus sign joins genes that one reagent is predicted to hit. No sequences are given here.

- Purpose: 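Fly genes whose loss lessens doxorubicin-driven cell death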 (primary screen)
- Cells: Drosophila Kc cells
- Knock-down reagent: long dsRNA against Drosophila genes, 0.5 µg dsRNA per well
- Timing: 96 h (48 h knock-down, then 48 h drug)
- Treatment: doxorubicin 5 µg/ml for 48 h, added 48 h after dsRNA
- Measured: 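Viability measured as cellular ATP by luminescence after 48 h knock-down then 48 h doxorubicin at 5 µg/ml; unnormalised plate counts for each replicate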
- Direction: raw ATP luminescence: higher = more viable cells, protection from doxorubicin
- Call rule: 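Active when both duplicate wells lie at least 2 SD above the plate mean and protection is confirmed by rescreening and independent dsRNAs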

klu (klumpfuss) → raw ATP luminescence, replicate 1 = 1.05e5; raw ATP luminescence, replicate 2 = 79793
CG9550 → raw ATP luminescence, replicate 1 = 21233; raw ATP luminescence, replicate 2 = 26077
CG4074 + CG4186 → raw ATP luminescence, replicate 1 = 77757; raw ATP luminescence, replicate 2 = 69073
RagC-D (Ras-related GTP binding C/D) → raw ATP luminescence, replicate 1 = 86087; raw ATP luminescence, replicate 2 = 49647
CG4691 → raw ATP luminescence, replicate 1 = 1.01e5; raw ATP luminescence, replicate 2 = 74303
plx (pollux) #1 → raw ATP luminescence, replicate 1 = 80600; raw ATP luminescence, replicate 2 = 62890
plx (pollux) #2 → raw ATP luminescence, replicate 1 = 65700; raw ATP luminescence, replicate 2 = 61050
Gpa2 (Glycoprotein hormone alpha 2) → raw ATP luminescence, replicate 1 = 2.60e5; raw ATP luminescence, replicate 2 = 2.72e5
Orcokinin → raw ATP luminescence, replicate 1 = 48697; raw ATP luminescence, replicate 2 = 53633
ase (asense) → raw ATP luminescence, replicate 1 = 45120; raw ATP luminescence, replicate 2 = 62440
bsf (bicoid stability factor) → raw ATP luminescence, replicate 1 = 1.00e5; raw ATP luminescence, replicate 2 = 65340

Targets above whose gene name begins with P or p:
plx (pollux) #1 → raw ATP luminescence, replicate 1 = 80600; raw ATP luminescence, replicate 2 = 62890
plx (pollux) #2 → raw ATP luminescence, replicate 1 = 65700; raw ATP luminescence, replicate 2 = 61050

More results follow:
Idgf4 (Imaginal disc growth factor 4) → raw ATP luminescence, replicate 1 = 3.35e5; raw ATP luminescence, replicate 2 = 2.93e5
CG15025 → raw ATP luminescence, replicate 1 = 79410; raw ATP luminescence, replicate 2 = 83900
B4 #1 → raw ATP luminescence, replicate 1 = 1.10e5; raw ATP luminescence, replicate 2 = 75983
B4 #2 → raw ATP luminescence, replicate 1 = 66130; raw ATP luminescence, replicate 2 = 68103
CG9297 → raw ATP luminescence, replicate 1 = 48980; raw ATP luminescence, replicate 2 = 26070
Cyfip (Cytoplasmic FMR1 interacting protein) → raw ATP luminescence, replicate 1 = 42487; raw ATP luminescence, replicate 2 = 23890
Spn77Bb + Spn77Bc #1 → raw ATP luminescence, replicate 1 = 67487; raw ATP luminescence, replicate 2 = 66510
Spn77Bb + Spn77Bc #2 → raw ATP luminescence, replicate 1 = 65057; raw ATP luminescence, replicate 2 = 66470
Cnot4 (CCR4-NOT transcription complex subunit 4) #1 → raw ATP luminescence, replicate 1 = 35000; raw ATP luminescence, replicate 2 = 1.00e5
Cnot4 (CCR4-NOT transcription complex subunit 4) #2 → raw ATP luminescence, replicate 1 = 43080; raw ATP luminescence, replicate 2 = 87010
sc (scute) → raw ATP luminescence, replicate 1 = 33950; raw ATP luminescence, replicate 2 = 33740
CG7606 #1 → raw ATP luminescence, replicate 1 = 1.30e5; raw ATP luminescence, replicate 2 = 1.80e5
CG7606 #2 → raw ATP luminescence, replicate 1 = 80230; raw ATP luminescence, replicate 2 = 88440
CG16922 (retired record) → raw ATP luminescence, replicate 1 = 1.29e5; raw ATP luminescence, replicate 2 = 1.24e5
CG7362 → raw ATP luminescence, replicate 1 = 83570; raw ATP luminescence, replicate 2 = 83180
CG5089 → raw ATP luminescence, replicate 1 = 47037; raw ATP luminescence, replicate 2 = 52390
Recs1 → raw ATP luminescence, replicate 1 = 1.15e5; raw ATP luminescence, replicate 2 = 76310
